Source: publication PMC9600267, “The Antibacterial Type VII Secretion System of Bacillus subtilis: Structure and Interactions of the Pseudokinase YukC/EssB” (mBio, 2022)
These are yes or no findings as the source states them, for the method shown. A result given as binding can be weak or reduced; the word gives no strength. Tags and fused reporters may be left off the sequences shown.

T1: YueB (full length), bacterial two-hybrid fusion (Bacillus subtilis 168) (UniProt O32101)
T1 sequence: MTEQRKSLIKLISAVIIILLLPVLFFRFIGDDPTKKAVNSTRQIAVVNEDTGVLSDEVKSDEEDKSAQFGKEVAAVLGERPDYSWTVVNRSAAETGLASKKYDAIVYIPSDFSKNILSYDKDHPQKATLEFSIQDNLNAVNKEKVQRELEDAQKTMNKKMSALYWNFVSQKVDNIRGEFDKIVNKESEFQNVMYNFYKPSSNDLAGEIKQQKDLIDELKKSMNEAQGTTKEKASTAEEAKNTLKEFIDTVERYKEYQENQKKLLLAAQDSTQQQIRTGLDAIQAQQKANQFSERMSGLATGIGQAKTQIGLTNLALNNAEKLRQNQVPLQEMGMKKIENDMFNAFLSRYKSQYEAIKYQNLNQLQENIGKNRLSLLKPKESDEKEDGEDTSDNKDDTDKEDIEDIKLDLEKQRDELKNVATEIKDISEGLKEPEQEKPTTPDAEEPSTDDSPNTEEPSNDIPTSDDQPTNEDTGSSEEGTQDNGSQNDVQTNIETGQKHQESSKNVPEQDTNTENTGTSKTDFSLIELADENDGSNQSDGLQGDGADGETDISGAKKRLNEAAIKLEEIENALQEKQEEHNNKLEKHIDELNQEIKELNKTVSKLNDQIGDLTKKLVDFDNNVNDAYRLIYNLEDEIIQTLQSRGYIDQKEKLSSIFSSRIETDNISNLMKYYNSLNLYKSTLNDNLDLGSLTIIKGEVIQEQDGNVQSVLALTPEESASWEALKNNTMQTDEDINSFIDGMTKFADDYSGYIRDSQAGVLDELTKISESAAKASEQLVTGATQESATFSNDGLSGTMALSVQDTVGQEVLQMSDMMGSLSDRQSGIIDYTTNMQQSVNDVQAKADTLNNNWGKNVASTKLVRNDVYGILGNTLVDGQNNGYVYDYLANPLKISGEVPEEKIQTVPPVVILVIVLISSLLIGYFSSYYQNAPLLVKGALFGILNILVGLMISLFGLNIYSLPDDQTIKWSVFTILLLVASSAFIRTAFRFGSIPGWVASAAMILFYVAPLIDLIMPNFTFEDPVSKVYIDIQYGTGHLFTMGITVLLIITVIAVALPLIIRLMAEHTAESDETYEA


How the values were obtained:
[1] = target: T1, YueB (full length), bacterial two-hybrid fusion (Bacillus subtilis 168); assay: two-hybrid; bacterial two-hybrid (BACTH) in E. coli BTH101; T25 (pKT25/pKNT25) and T18 (pUT18/pUT18C) fusions; spots on LB with X-Gal and IPTG, 25°C, imaged after 48 h
[2] = target: YueBINT (YueB lacking residues 31 to 817), bacterial two-hybrid fusion (Bacillus subtilis 168) (UniProt O32101); assay: as above

binding [1]	binding [2]	Molecule
binds	–	YueBINT (YueB lacking residues 31 to 817), bacterial two-hybrid fusion (from UniProt O32101)
–	binds	YukC (full length), bacterial two-hybrid fusion (protein, UniProt P71070 1-451) MSGEQKSYLENQLEAVAEKTDAGYTFTFQREKIKLLDGLEANVIKDINPFFHKEIDVTDDEVIITIQPPSSYKAFRFMKAKDKKSKWQFAYQLVQAVQQHNLSRLNLIVAPENIVFDKGLTPYFLHYGVKESIPPYERDEERVWQELKAAAALAVDGAFAFEDYLKFNETLTFSAEAKAILDAESYDDLLELIQTHIDELEAKAKTYIHIPRKKWNIQRYIGLGLIVLLVPALIYSMYALFFAQPKHQAIVDSNRAFLNKQYSEVISTLSKYDAESLPESVQYQLATSYVEVENLGSAKTKNIENNLVTLQSDPQHFLYWIDYGRGEYKEAISIGRKLEYNDYIYFALAKYKQQLLSEDTNDEDIQKELDSVNSELEKAQKERQENKQSNSETSLVDTSEEQTQTDEEKQAEEKAAEEKAAAEEKAKKEEQKEKEDEKKETEKKDEKKDDK
